Data published in PubChem BioAssay AID2685 (National Center for Advancing Translational Sciences (NCATS), 2010).
About 2,100 (0.66%) of roughly 320,000 compounds were called active. The inconclusive results got no clear call from the source; some entries with a clear call stand among them for comparison. Calls follow the shape of the dose curve; as a rule, active = well fitted inhibition curve with a large enough effect in the signal ratio, with a control signal flat (not every such curve was filed as active); inconclusive = small, poorly fitted or top-dose-only effect, or effect the other way, or a change in a side signal; inactive = flat fitted curve, though single readings scatter; the % refers to the signal ratio. Potencies beside an inconclusive call are fits to weak or partial responses and may not hold up.

Test: qHTS Assay for Lipid Storage Modulators in Drosophila S3 Cells
Settings: BODIPY lipid droplet fluorescence, 18-24 h, cells fed with added oleic acid; lipid storage change, negative = inhibition: at 46.1 µM (top of the series) unless noted
Method in brief: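 Laser-scanning cytometry quantifies lipid droplet accumulation (500–530 nm total intensity; droplet/cell object ratio) in oleic acid-fed (400 uM added) Drosophila S3 cells treated with a concentration series. 20 uM Triacsin C defined 100% inhibition.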
% is scaled to controls: 0 for no effect and ±100 for the full control effect; potency is read from the fitted curve at half-maximal effect.

| SMILES | lipid storage change, negative = inhibition | Potency | outcome |
| --- | --- | --- | --- |
| CCC(C)(C)NC(=O)C(c1ccc(C)cc1)N(Cc1ccco1)C(=O)Cn1nnc2ccccc21 (centres undefined) | inconclusive: -23.2% |  |  |
| O=C(Nc1cccc(-c2cccc(Cl)c2)c1)C1CCN(Cc2ccccn2)CC1 |  | inconclusive: 29.1 µM [falling, single point] |  |
| Cc1cc(NC(=O)c2cccc(Oc3ccccc3)c2)n[nH]1 | inconclusive: 21.5% |  |  |
| CCN(c1ccc(Cl)cc1)S(=O)(=O)c1nnc(NC(=O)C(C)C)s1 | inconclusive: -19% |  |  |
| CN(Cc1ccco1)c1ncnc2ccc(-c3ccc4c(c3)OCO4)cc12 | inconclusive: 28.1% |  |  |
| COc1cc(NC(=O)CCn2c(=S)oc3ccccc32)cc(OC)c1OC | inconclusive: -6% |  |  |
| Cc1ccccc1Nc1nc(-c2sc(NC(=O)c3ccco3)nc2C)cs1 |  | inconclusive: 0.146 µM [rising, full curve] |  |
| Cc1ccc(C2CC(=O)c3cnc(N4CC(C)CC(C)C4)nc3C2)cc1 (centres undefined) | inconclusive: -12.2% |  |  |
| COc1cccc(NC(=S)N(CCN(C)C)C(C)c2ccco2)c1 (centres undefined) | inconclusive: 19.8% |  |  |
| Clc1ccc(CN2CCSCC2)cc1Cl |  | inconclusive: 0.082 µM [falling, full curve, poor fit] |  |
| CC(C)(C)NC(=O)NC(=O)COc1ccc(Br)cc1Br | inconclusive: -58.6% |  |  |
| Cc1cc(C)nc(NS(=O)(=O)c2ccc(N3C(=O)C4CCCCC4C3=O)cc2)n1 (centres undefined) | inconclusive: -78% |  |  |
| Cc1ccsc1C(=O)NNC(=S)NC1CCCCC1 | inconclusive: -21.1% |  |  |
| Cc1ccc(NC(=O)c2ccc(S(=O)(=O)NCc3ccco3)cc2)cc1 |  | inconclusive: 6.51 µM [activator, single point] |  |
| FC(F)Oc1ccc(NC(=S)NC2CCCCCCC2)cc1 |  | inconclusive: 29.1 µM [activator, single point] |  |
| COc1ccc(NC(C)=O)cc1S(=O)(=O)NC(Cc1ccccc1)C(=O)NCc1ccccc1C (centres undefined) |  | active: 1.84 µM |  |
| COc1cccc(-c2nc(CS(=O)CC(=O)NCCCOC(C)C)c(C)o2)c1 (centres undefined) |  | inconclusive: 4.61 µM [activator, partial curve] |  |
| Cc1ccc(S(=O)(=O)NC(=NC2CCCCC2)c2ccccc2)cc1 | inconclusive: 23% |  |  |
| COC(=O)c1cc(S(=O)(=O)NC2CCCCC2)cn1C | inconclusive: -13.1% |  |  |
| Cc1ccc2sc(NNC(=O)C3COc4ccccc4O3)nc2c1C (centres undefined) | inconclusive: -6.69% |  |  |
| COc1ccc([N+](=O)[O-])cc1NC(=O)CSc1nc(C)cc(C)n1 |  | inconclusive: 2.59 µM [activator, single point] |  |
| N=c1n(CCc2ccccc2)c2ccccc2n1Cc1ccccc1F | inconclusive: -16.5% |  |  |
| CCCc1cc(Nc2cccc(OCC)c2)n2ncnc2n1 | inconclusive: 17.9% |  |  |
| CC(C)(C)NC(=O)COC(=O)c1cc(Cl)ccc1[N+](=O)[O-] |  | inconclusive: 0.164 µM [falling, full curve, poor fit] |  |
| O=C(Nc1ccon1)c1csc2ccccc12 |  | inconclusive: 2.59 µM [activator, full curve] |  |

Sorted by formula weight (falling): some entries from above.

| SMILES | lipid storage change, negative = inhibition | Potency | outcome |
| --- | --- | --- | --- |
| COc1cccc(-c2nc(CS(=O)CC(=O)NCCCOC(C)C)c(C)o2)c1 (centres undefined) |  | inconclusive: 4.61 µM [activator, partial curve] |  |
| Cc1ccc(C2CC(=O)c3cnc(N4CC(C)CC(C)C4)nc3C2)cc1 (centres undefined) | inconclusive: -12.2% |  |  |
| COc1cccc(NC(=S)N(CCN(C)C)C(C)c2ccco2)c1 (centres undefined) | inconclusive: 19.8% |  |  |

Next compounds follow:

| SMILES | lipid storage change, negative = inhibition | Potency | outcome |
| --- | --- | --- | --- |
| CC1CCN(Cc2c(C(=O)O)nnn2-c2nonc2N)CC1 | inconclusive: -38.6% |  |  |
| O=C1CSc2ccc(S(=O)(=O)NCc3ccccc3)cc2N1 | inconclusive: -11.2% |  |  |
| Cc1ccc(-c2noc(CN3CCN(C(c4ccccc4)c4ccccc4)CC3)n2)cc1 | inconclusive: -196% |  |  |
| O=C(c1cc2ccccc2o1)N1CCN(c2cccc(Cl)c2)CC1 | inconclusive: 31.8% |  |  |
| Nc1nc(SCC(=O)Nc2ccc([N+](=O)[O-])cc2Br)n[nH]1 | inconclusive: -18.7% |  |  |
| CCOc1ccc(NC(=O)COc2ccc3c(c2)OCO3)cc1 | inconclusive: 290% |  |  |
| COc1ccc(NC(=O)CSCC(=O)Nc2nnc(CC(C)C)s2)cc1 | inconclusive: -0.179% |  |  |
| Cc1c(Br)c([N+](=O)[O-])nn1CC(=O)Nc1ccccn1 | inconclusive: 5.8% |  |  |
| Cc1cccc(C(=O)OCC(=O)NCCNC(=O)COC(=O)c2cccc(C)c2C)c1C | inconclusive: 44.8% |  |  |
| CNC(=O)c1sc(N2N=C3/C(=C/c4ccccc4)CCCC3C2c2ccccc2)nc1C (centres undefined) | inconclusive: 304% |  |  |
| C#CCOCCOCCOCCNc1nc(N2CCN(C(=O)[C@H]([C@@H](C)O)n3cc(CCCCN)nn3)CC2)nc(N2CCN(C(=O)[C@H](CCCCN)n3cc(CC(C)O)nn3)CC2)n1 (some centres undefined) |  | inconclusive: 0.116 µM [falling, full curve, poor fit] |  |
| Cc1ccc(Sc2nc3c(c(=O)[nH]c(=O)n3C)n2CCc2ccccc2)cc1 |  | inconclusive: 5.8 µM [activator, partial curve] |  |
| CCOC(=O)c1sc2nc(C)nc(NCc3ccc(Cl)cc3)c2c1C |  | inconclusive: 29.1 µM [rising, single point] |  |
| CCCS(=O)(=O)N1CCC(C(=O)NCCc2ccccc2)CC1 | inconclusive: 7.2% |  |  |
| CC(=O)/C(=N\Nc1ccc(Cl)cc1Cl)Sc1cccc2cccnc12 | inconclusive: -86.8% |  |  |
| CC(C)CN(C(=O)c1ccc(N2CCCC2=O)cc1)c1c(N)n(Cc2ccccc2)c(=O)[nH]c1=O | inconclusive: 7.59% |  |  |
| CC(C)(C)c1[nH]ncc1[N+](=O)[O-] |  |  | inactive [at 46.1 µM] |
| COc1ccc(Cl)cc1N1CC(C(=O)Nc2nccs2)CC1=O (centres undefined) | inconclusive: 13.6% |  |  |
| O=C(Nc1ccc(S(=O)(=O)Nc2ncccn2)cc1)c1cccc(Br)c1 | inconclusive: 35.7% |  |  |
| Cc1ccc(N(C(=O)CNC(=O)c2ccco2)C(C(=O)NC2CCCC2)c2ccncc2)cc1C (centres undefined) |  | inconclusive: 29.1 µM [falling, single point] |  |
| COc1ccc(NC(=S)Nc2cccc(S(=O)(=O)N3CCCCC3)c2)cc1 |  | inconclusive: 29.1 µM [cytotoxic, single point] |  |
| Fc1ccc(C2=Nn3c(Cc4ccccc4)nnc3SC2)cc1 |  | inconclusive: 7.31 µM [falling, partial curve] |  |
| CN=C1SC(CC(=O)Nc2ccccc2F)C(=O)N1/N=C/c1ccc(O)c(OC)c1 (centres undefined) | inconclusive: -19.5% |  |  |
| COc1cc(NC(=O)[C@@H](NC(=O)N2CCn3c2nc2ccccc23)C(C)C)cc(OC)c1 | inconclusive: 18.4% |  |  |
